According to the supplement of paper PMC7661543:
Differences between knockout arms are mostly noise.

System: MDA-MB-231
Test: relative cell number vs DMSO control (72 h) (% of DMSO); higher = less growth inhibition (more cells)
Method: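 QMAP-Seq: a pool of 5 breast cancer cell lines (ZR-75-1, SKBR3, HCC-38, MDA-MB-231, BT-20), each carrying 12 doxycycline-inducible Cas9 sgRNA perturbations (11 knockouts plus non-targeting sgNT), was treated with compounds for 72 h at four 10-fold doses (10 nM-10 uM or 1 nM-1 uM range). Barcodes were amplified and sequenced, and cell number was interpolated from 293T spike-in standard curves. The result is expressed as % of the median of DMSO wells. Two biological replicates.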

COc1cc(CCc2cc(NC(=O)c3ccc(N4CC(C)NC(C)C4)cc3)n[nH]2)cc(OC)c1 (stereo unspecified) [AZD4547]
Settings	relative cell number
sgRNA knockout: sgATF3, 10 nM	89.7
sgRNA knockout: sgATF3, 100 nM	92.6
sgRNA knockout: sgATF3, 1000 nM	81.1
sgRNA knockout: sgATF3, 10000 nM	30.4
sgRNA knockout: sgATF4, 10 nM	79
sgRNA knockout: sgATF4, 100 nM	71
sgRNA knockout: sgATF4, 1000 nM	85.7
sgRNA knockout: sgATF4, 10000 nM	27.3
sgRNA knockout: sgATF6, 10 nM	57.1
sgRNA knockout: sgATF6, 100 nM	93.2
sgRNA knockout: sgATF6, 1000 nM	80.3
sgRNA knockout: sgATF6, 10000 nM	26.1
sgRNA knockout: sgATG7, 10 nM	86.9
sgRNA knockout: sgATG7, 100 nM	84.8
sgRNA knockout: sgATG7, 1000 nM	95.2
sgRNA knockout: sgATG7, 10000 nM	39.7
sgRNA knockout: sgERN1, 10 nM	92.9
sgRNA knockout: sgERN1, 100 nM	92.7
sgRNA knockout: sgERN1, 1000 nM	92.5
sgRNA knockout: sgERN1, 10000 nM	31.7
sgRNA knockout: sgHSF1, 10 nM	76.6
sgRNA knockout: sgHSF1, 100 nM	93.5
sgRNA knockout: sgHSF1, 1000 nM	90.1
sgRNA knockout: sgHSF1, 10000 nM	37.3
sgRNA knockout: sgHSF2, 10 nM	71.3
sgRNA knockout: sgHSF2, 100 nM	83.9
sgRNA knockout: sgHSF2, 1000 nM	89.5
sgRNA knockout: sgHSF2, 10000 nM	26.4
sgRNA knockout: sgKEAP1, 10 nM	80.4
sgRNA knockout: sgKEAP1, 100 nM	106
sgRNA knockout: sgKEAP1, 1000 nM	85.8
sgRNA knockout: sgKEAP1, 10000 nM	33.5
sgRNA knockout: sgNFE2L2, 10 nM	76.4
sgRNA knockout: sgNFE2L2, 100 nM	94.2
sgRNA knockout: sgNFE2L2, 1000 nM	78.69
sgRNA knockout: sgNFE2L2, 10000 nM	31.5
sgRNA knockout: sgSLC35F2, 10 nM	76.3
sgRNA knockout: sgSLC35F2, 100 nM	81.5
sgRNA knockout: sgSLC35F2, 1000 nM	108
sgRNA knockout: sgSLC35F2, 10000 nM	29.3
sgRNA knockout: sgXBP1, 10 nM	74.9
sgRNA knockout: sgXBP1, 100 nM	102
sgRNA knockout: sgXBP1, 1000 nM	79.1
sgRNA knockout: sgXBP1, 10000 nM	31.2

COc1nc(N)nc2c1ncn2[C@@H]1O[C@H](CO)[C@@H](O)[C@@H]1O [Nelarabine]
Settings	relative cell number
sgRNA knockout: sgATF3, 10 nM	119
sgRNA knockout: sgATF3, 100 nM	99.1
sgRNA knockout: sgATF3, 1000 nM	89.1
sgRNA knockout: sgATF3, 10000 nM	98
sgRNA knockout: sgATF4, 10 nM	102
sgRNA knockout: sgATF4, 100 nM	102
sgRNA knockout: sgATF4, 1000 nM	109
sgRNA knockout: sgATF4, 10000 nM	87.4
sgRNA knockout: sgATF6, 10 nM	83.1
sgRNA knockout: sgATF6, 100 nM	92.8
sgRNA knockout: sgATF6, 1000 nM	118
sgRNA knockout: sgATF6, 10000 nM	88.1
sgRNA knockout: sgATG7, 10 nM	87.1
sgRNA knockout: sgATG7, 100 nM	108
sgRNA knockout: sgATG7, 1000 nM	99.4
sgRNA knockout: sgATG7, 10000 nM	86
sgRNA knockout: sgERN1, 10 nM	117
sgRNA knockout: sgERN1, 100 nM	97
sgRNA knockout: sgERN1, 1000 nM	92.3
sgRNA knockout: sgERN1, 10000 nM	66.5
sgRNA knockout: sgHSF1, 10 nM	85.7
sgRNA knockout: sgHSF1, 100 nM	84.2
sgRNA knockout: sgHSF1, 1000 nM	95.4
sgRNA knockout: sgHSF1, 10000 nM	84.6
sgRNA knockout: sgHSF2, 10 nM	95
sgRNA knockout: sgHSF2, 100 nM	103
sgRNA knockout: sgHSF2, 1000 nM	83.1
sgRNA knockout: sgHSF2, 10000 nM	87.2
sgRNA knockout: sgKEAP1, 10 nM	87.33
sgRNA knockout: sgKEAP1, 100 nM	69.9
sgRNA knockout: sgKEAP1, 1000 nM	101
sgRNA knockout: sgKEAP1, 10000 nM	74.8
sgRNA knockout: sgNFE2L2, 10 nM	103
sgRNA knockout: sgNFE2L2, 100 nM	103
sgRNA knockout: sgNFE2L2, 1000 nM	108
sgRNA knockout: sgNFE2L2, 10000 nM	116
sgRNA knockout: sgSLC35F2, 10 nM	106
sgRNA knockout: sgSLC35F2, 100 nM	100
sgRNA knockout: sgSLC35F2, 1000 nM	89
sgRNA knockout: sgSLC35F2, 10000 nM	89.3
sgRNA knockout: sgXBP1, 10 nM	94.7
sgRNA knockout: sgXBP1, 100 nM	96
sgRNA knockout: sgXBP1, 1000 nM	85
sgRNA knockout: sgXBP1, 10000 nM	78.2

COc1cc2nc(N3CCCN(C)CC3)nc(NC3CCN(Cc4ccccc4)CC3)c2cc1OC
Settings	relative cell number
sgRNA knockout: sgATF3, 10 nM	108
sgRNA knockout: sgATF3, 100 nM	93.6
sgRNA knockout: sgATF3, 1000 nM	100
sgRNA knockout: sgATF3, 10000 nM	4.93
sgRNA knockout: sgATF4, 10 nM	72.5
sgRNA knockout: sgATF4, 100 nM	119
sgRNA knockout: sgATF4, 1000 nM	94.4
sgRNA knockout: sgATF4, 10000 nM	6.06
sgRNA knockout: sgATF6, 10 nM	89
sgRNA knockout: sgATF6, 100 nM	106
sgRNA knockout: sgATF6, 1000 nM	87.5
sgRNA knockout: sgATF6, 10000 nM	6.03
sgRNA knockout: sgATG7, 10 nM	84.1
sgRNA knockout: sgATG7, 100 nM	111
sgRNA knockout: sgATG7, 1000 nM	67.92
sgRNA knockout: sgATG7, 10000 nM	5.51
sgRNA knockout: sgERN1, 10 nM	110
sgRNA knockout: sgERN1, 100 nM	104
sgRNA knockout: sgERN1, 1000 nM	90.08
sgRNA knockout: sgERN1, 10000 nM	4.84
sgRNA knockout: sgHSF1, 10 nM	97.8
sgRNA knockout: sgHSF1, 100 nM	90.5
sgRNA knockout: sgHSF1, 1000 nM	98.2
sgRNA knockout: sgHSF1, 10000 nM	3.61
sgRNA knockout: sgHSF2, 10 nM	83.9
sgRNA knockout: sgHSF2, 100 nM	110
sgRNA knockout: sgHSF2, 1000 nM	74.8
sgRNA knockout: sgHSF2, 10000 nM	6.44
sgRNA knockout: sgKEAP1, 10 nM	105.6
sgRNA knockout: sgKEAP1, 100 nM	82.6
sgRNA knockout: sgKEAP1, 1000 nM	106
sgRNA knockout: sgKEAP1, 10000 nM	3.37
sgRNA knockout: sgNFE2L2, 10 nM	93.29
sgRNA knockout: sgNFE2L2, 100 nM	105
sgRNA knockout: sgNFE2L2, 1000 nM	72.8
sgRNA knockout: sgNFE2L2, 10000 nM	6.9
sgRNA knockout: sgSLC35F2, 10 nM	85.86
sgRNA knockout: sgSLC35F2, 100 nM	99.2
sgRNA knockout: sgSLC35F2, 1000 nM	87
sgRNA knockout: sgSLC35F2, 10000 nM	5.72
sgRNA knockout: sgXBP1, 10 nM	92.8
sgRNA knockout: sgXBP1, 100 nM	93.3
sgRNA knockout: sgXBP1, 1000 nM	73.6
sgRNA knockout: sgXBP1, 10000 nM	5.05

C=C(c1ccc(C(=O)O)cc1)c1cc2c(cc1C)C(C)(C)CCC2(C)C [Bexarotene]
Settings	relative cell number
sgRNA knockout: sgATF3, 10 nM	112
sgRNA knockout: sgATF3, 100 nM	81.4
sgRNA knockout: sgATF3, 1000 nM	81.7
sgRNA knockout: sgATF3, 10000 nM	117.4
sgRNA knockout: sgATF4, 10 nM	102
sgRNA knockout: sgATF4, 100 nM	97.6
sgRNA knockout: sgATF4, 1000 nM	96.5
sgRNA knockout: sgATF4, 10000 nM	76.1
sgRNA knockout: sgATF6, 10 nM	92.7
sgRNA knockout: sgATF6, 100 nM	95.8
sgRNA knockout: sgATF6, 1000 nM	65.3
sgRNA knockout: sgATF6, 10000 nM	79.2
sgRNA knockout: sgATG7, 10 nM	88.2
sgRNA knockout: sgATG7, 100 nM	96.1
sgRNA knockout: sgATG7, 1000 nM	90.3
sgRNA knockout: sgATG7, 10000 nM	96.2
sgRNA knockout: sgERN1, 10 nM	102
sgRNA knockout: sgERN1, 100 nM	84.3
sgRNA knockout: sgERN1, 1000 nM	109
sgRNA knockout: sgERN1, 10000 nM	103
sgRNA knockout: sgHSF1, 10 nM	103
sgRNA knockout: sgHSF1, 100 nM	101
sgRNA knockout: sgHSF1, 1000 nM	97.57
sgRNA knockout: sgHSF1, 10000 nM	86
sgRNA knockout: sgHSF2, 10 nM	97.2
sgRNA knockout: sgHSF2, 100 nM	80.4
sgRNA knockout: sgHSF2, 1000 nM	102
sgRNA knockout: sgHSF2, 10000 nM	75.7
sgRNA knockout: sgKEAP1, 10 nM	99.8
sgRNA knockout: sgKEAP1, 100 nM	91.4
sgRNA knockout: sgKEAP1, 1000 nM	97.6
sgRNA knockout: sgKEAP1, 10000 nM	86.7
sgRNA knockout: sgNFE2L2, 10 nM	88.9
sgRNA knockout: sgNFE2L2, 100 nM	111
sgRNA knockout: sgNFE2L2, 1000 nM	89.4
sgRNA knockout: sgNFE2L2, 10000 nM	110
sgRNA knockout: sgSLC35F2, 10 nM	103
sgRNA knockout: sgSLC35F2, 100 nM	89.3
sgRNA knockout: sgSLC35F2, 1000 nM	102
sgRNA knockout: sgSLC35F2, 10000 nM	107
sgRNA knockout: sgXBP1, 10 nM	92
sgRNA knockout: sgXBP1, 100 nM	77.8
sgRNA knockout: sgXBP1, 1000 nM	98.2
sgRNA knockout: sgXBP1, 10000 nM	78.5
